Paper doi:10.1101/2023.10.30.564738 (bioRxiv, 2023)
Read-outs that look alike come from different tables or passages of the source. Results are given in words; binding and its absence hold for the method and conditions named. In cells and extracts the contact can be indirect. Some results given as binding are weak or reduced against the parent protein; the word gives no strength. Tags and fused reporters may be left off the sequences shown.

By UniProt entry, the sequences of proteins in these tests, tags left out. Where a name states a change or a piece, a line headed by the entry shows the natural chain unless it says otherwise.
UniProt P40460: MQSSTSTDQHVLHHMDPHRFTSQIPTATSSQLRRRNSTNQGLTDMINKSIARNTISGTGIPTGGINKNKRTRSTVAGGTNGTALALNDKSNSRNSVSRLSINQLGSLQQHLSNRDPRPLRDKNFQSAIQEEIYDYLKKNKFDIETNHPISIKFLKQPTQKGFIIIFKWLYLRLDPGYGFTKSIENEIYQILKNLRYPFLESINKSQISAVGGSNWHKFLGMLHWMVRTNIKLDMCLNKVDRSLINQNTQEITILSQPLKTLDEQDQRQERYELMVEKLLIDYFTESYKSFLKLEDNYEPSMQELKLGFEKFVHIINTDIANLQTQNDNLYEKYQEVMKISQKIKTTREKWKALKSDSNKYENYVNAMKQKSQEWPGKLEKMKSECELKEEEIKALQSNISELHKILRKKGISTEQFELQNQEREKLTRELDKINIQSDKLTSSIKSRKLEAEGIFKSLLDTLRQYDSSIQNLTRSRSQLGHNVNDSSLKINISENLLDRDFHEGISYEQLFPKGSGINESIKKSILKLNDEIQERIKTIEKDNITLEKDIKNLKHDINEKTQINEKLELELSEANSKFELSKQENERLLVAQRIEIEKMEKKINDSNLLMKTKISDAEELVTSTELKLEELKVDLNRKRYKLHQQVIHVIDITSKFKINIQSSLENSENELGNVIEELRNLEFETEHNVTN
UniProt P33895: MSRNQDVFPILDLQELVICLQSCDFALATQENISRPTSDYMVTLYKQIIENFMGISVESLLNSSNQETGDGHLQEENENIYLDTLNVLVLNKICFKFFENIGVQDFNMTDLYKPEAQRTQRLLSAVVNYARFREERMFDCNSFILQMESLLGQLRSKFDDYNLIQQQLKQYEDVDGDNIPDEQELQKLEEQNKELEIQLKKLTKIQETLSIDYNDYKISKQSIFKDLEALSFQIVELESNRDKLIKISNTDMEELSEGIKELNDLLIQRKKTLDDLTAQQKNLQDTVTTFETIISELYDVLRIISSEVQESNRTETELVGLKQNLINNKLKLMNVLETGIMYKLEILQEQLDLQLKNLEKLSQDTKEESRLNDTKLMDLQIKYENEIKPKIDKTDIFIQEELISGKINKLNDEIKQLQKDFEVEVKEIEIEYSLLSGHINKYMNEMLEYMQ
UniProt Q04477: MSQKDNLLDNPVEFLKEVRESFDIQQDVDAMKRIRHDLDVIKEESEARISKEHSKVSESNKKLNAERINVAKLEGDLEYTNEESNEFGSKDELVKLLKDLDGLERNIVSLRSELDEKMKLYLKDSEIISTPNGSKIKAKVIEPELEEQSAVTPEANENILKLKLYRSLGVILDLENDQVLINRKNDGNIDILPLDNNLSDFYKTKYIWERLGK
UniProt P40014: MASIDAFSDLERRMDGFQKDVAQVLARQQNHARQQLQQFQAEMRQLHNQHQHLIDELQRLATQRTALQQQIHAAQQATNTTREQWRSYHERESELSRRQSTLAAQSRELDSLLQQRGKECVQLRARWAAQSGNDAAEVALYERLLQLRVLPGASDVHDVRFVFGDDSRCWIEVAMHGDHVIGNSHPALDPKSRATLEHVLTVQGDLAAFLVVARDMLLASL

T1: MBP fusion of Mps1 1–143 (S. cerevisiae) (UniProt P54199)
T1 sequence: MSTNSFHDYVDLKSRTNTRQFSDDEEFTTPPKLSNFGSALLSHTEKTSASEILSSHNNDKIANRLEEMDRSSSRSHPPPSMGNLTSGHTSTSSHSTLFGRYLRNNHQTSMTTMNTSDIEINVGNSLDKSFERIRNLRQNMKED

T2: MBP fusion encompassing Mps1 residues 1–173 (S. cerevisiae) (UniProt P54199)
T2 sequence: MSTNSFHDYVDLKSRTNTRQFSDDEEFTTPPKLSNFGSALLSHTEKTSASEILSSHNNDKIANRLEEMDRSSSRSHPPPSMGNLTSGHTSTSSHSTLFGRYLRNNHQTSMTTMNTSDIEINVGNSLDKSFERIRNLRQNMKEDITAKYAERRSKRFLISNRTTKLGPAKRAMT

T3: MBP-Mps1^1–250–8xHis (wild type) (S. cerevisiae) (UniProt P54199)
T3 sequence: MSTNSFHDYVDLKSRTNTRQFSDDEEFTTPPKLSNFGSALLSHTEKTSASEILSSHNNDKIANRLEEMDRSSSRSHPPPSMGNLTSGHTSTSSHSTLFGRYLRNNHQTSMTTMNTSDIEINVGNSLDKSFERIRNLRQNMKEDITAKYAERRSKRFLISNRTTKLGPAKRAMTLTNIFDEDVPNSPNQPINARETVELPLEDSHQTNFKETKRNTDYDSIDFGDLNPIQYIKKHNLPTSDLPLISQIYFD

T4: MBP-Mps1^1–250, bp (R151D R152D R155D) (S. cerevisiae) (UniProt P54199)
T4 sequence: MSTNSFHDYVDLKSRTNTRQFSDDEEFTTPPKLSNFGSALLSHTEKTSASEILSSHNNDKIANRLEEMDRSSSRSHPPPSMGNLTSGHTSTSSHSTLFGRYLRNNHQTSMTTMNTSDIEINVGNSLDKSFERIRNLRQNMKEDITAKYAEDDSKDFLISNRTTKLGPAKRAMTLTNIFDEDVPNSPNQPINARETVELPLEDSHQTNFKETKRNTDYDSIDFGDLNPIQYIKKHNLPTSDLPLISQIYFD


Key:
[1] = target: T1, MBP fusion of Mps1 1–143 (S. cerevisiae); experiment: pull-down
[2] = target: T2, MBP fusion encompassing Mps1 residues 1–173 (S. cerevisiae); experiment: pull-down
[3] = target: T3, MBP-Mps1^1–250–8xHis (wild type) (S. cerevisiae); experiment: pull-down
[4] = target: T3, MBP-Mps1^1–250–8xHis (wild type) (S. cerevisiae); experiment: pull-down; remark: listed apart in the source
[5] = target: T4, MBP-Mps1^1–250, bp (R151D R152D R155D) (S. cerevisiae); experiment: pull-down
[6] = target: Ndc80 complex (Ndc80-Flag:Nuf2:Spc24:Spc25) (S. cerevisiae) (UniProt P40460+P33895+Q04477+P40014); experiment: co-IP

| Molecule | binding [1] | binding [2] | binding [3] | binding [4] | binding [5] | binding [6] |
| --- | --- | --- | --- | --- | --- | --- |
| Ndc80 complex (Ndc80-Flag:Nuf2:Spc24:Spc25) (from UniProt P40460 1-691; P33895 1-451; Q04477 1-213; P40014 1-221) | no binding | binds | binds | binds | binds |  |
| StrepII-tagged full-length Mps1^hm (F156D L165A) (protein, UniProt P54199 1-764) MSTNSFHDYVDLKSRTNTRQFSDDEEFTTPPKLSNFGSALLSHTEKTSASEILSSHNNDKIANRLEEMDRSSSRSHPPPSMGNLTSGHTSTSSHSTLFGRYLRNNHQTSMTTMNTSDIEINVGNSLDKSFERIRNLRQNMKEDITAKYAERRSKRDLISNRTTKAGPAKRAMTLTNIFDEDVPNSPNQPINARETVELPLEDSHQTNFKETKRNTDYDSIDFGDLNPIQYIKKHNLPTSDLPLISQIYFDKQREENRQAALRKHSSRELLYKSRSSSSSLSSNNLLANKDNSITSNNGSQPRRKVSTGSSSSKSSIEIRRALKENIDTSNNSNFNSPIHKIYKGISRNKDSDSEKREVLRNISINANHADNLLQQENKRLKRSLDDAITNENINSKNLEVFYHRPAPKPPVTKKVEIVEPAKSASLSNNRNIITVNDSQYEKIELLGRGGSSRVYKVKGSGNRVYALKRVSFDAFDDSSIDGFKGEIELLEKLKDQKRVIQLLDYEMGDGLLYLIMECGDHDLSQILNQRSGMPLDFNFVRFYTKEMLLCIKVVHDAGIVHSDLKPANFVLVKGILKIIDFGIANAVPEHTVNIYRETQIGTPNYMAPEALVAMNYTQNSENQHEGNKWKVGRPSDMWSCGCIIYQMIYGKPPYGSFQGQNRLLAIMNPDVKIPFPEHTSNNEKIPKSAIELMKACLYRNPDKRWTVDKVLSSTFLQPFMISGSIMEDLIRNAVRYGSEKPHISQDDLNDVVDTVLRKFADYKI |  |  |  |  |  | binds weakly |
| StrepII-tagged full-length Mps1^hm+bp (R151D R152D R155D F156D L165A) (protein, UniProt P54199 1-764) MSTNSFHDYVDLKSRTNTRQFSDDEEFTTPPKLSNFGSALLSHTEKTSASEILSSHNNDKIANRLEEMDRSSSRSHPPPSMGNLTSGHTSTSSHSTLFGRYLRNNHQTSMTTMNTSDIEINVGNSLDKSFERIRNLRQNMKEDITAKYAEDDSKDDLISNRTTKAGPAKRAMTLTNIFDEDVPNSPNQPINARETVELPLEDSHQTNFKETKRNTDYDSIDFGDLNPIQYIKKHNLPTSDLPLISQIYFDKQREENRQAALRKHSSRELLYKSRSSSSSLSSNNLLANKDNSITSNNGSQPRRKVSTGSSSSKSSIEIRRALKENIDTSNNSNFNSPIHKIYKGISRNKDSDSEKREVLRNISINANHADNLLQQENKRLKRSLDDAITNENINSKNLEVFYHRPAPKPPVTKKVEIVEPAKSASLSNNRNIITVNDSQYEKIELLGRGGSSRVYKVKGSGNRVYALKRVSFDAFDDSSIDGFKGEIELLEKLKDQKRVIQLLDYEMGDGLLYLIMECGDHDLSQILNQRSGMPLDFNFVRFYTKEMLLCIKVVHDAGIVHSDLKPANFVLVKGILKIIDFGIANAVPEHTVNIYRETQIGTPNYMAPEALVAMNYTQNSENQHEGNKWKVGRPSDMWSCGCIIYQMIYGKPPYGSFQGQNRLLAIMNPDVKIPFPEHTSNNEKIPKSAIELMKACLYRNPDKRWTVDKVLSSTFLQPFMISGSIMEDLIRNAVRYGSEKPHISQDDLNDVVDTVLRKFADYKI |  |  |  |  |  | binds weakly |
